One substance from PMC9657876 can be followed below.

Sequences of proteins named here, by UniProt entry; tags and fusion partners are left off.
UniProt Q13283: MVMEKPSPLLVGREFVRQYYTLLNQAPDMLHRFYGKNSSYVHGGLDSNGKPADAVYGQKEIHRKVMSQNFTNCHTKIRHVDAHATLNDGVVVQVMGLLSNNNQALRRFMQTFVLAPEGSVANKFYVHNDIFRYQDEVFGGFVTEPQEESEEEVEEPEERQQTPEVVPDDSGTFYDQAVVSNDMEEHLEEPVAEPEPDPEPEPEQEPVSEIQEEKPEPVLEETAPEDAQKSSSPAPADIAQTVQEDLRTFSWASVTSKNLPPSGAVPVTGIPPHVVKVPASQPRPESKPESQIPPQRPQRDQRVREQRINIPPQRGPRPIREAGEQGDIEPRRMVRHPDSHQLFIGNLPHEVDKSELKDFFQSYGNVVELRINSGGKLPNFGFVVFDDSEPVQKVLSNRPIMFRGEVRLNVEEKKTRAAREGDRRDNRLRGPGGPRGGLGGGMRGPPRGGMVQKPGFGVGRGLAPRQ
UniProt O15523: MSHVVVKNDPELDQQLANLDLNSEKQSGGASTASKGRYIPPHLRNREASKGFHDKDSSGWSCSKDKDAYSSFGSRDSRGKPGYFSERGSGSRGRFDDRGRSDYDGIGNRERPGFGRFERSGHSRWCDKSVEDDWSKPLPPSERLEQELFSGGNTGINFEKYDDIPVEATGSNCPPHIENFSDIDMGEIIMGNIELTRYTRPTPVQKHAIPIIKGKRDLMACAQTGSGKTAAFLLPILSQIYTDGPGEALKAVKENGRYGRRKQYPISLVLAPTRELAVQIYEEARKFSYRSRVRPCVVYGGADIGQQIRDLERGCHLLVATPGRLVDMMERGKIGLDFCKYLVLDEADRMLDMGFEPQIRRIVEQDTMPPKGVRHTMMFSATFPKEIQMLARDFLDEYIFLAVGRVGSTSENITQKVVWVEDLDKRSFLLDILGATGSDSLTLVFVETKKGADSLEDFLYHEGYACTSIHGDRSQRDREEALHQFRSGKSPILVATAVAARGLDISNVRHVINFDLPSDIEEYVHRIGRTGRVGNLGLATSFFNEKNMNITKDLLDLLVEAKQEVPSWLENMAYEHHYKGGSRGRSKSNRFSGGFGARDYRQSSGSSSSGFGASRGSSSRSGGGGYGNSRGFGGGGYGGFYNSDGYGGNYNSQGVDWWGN

Results are given in words; binding and its absence hold for the method and conditions named. In cells and extracts the contact can be indirect. Some binding calls cover weakened binding; strength is not graded here.

The experiment concerns the target G3BP stress granule assembly factor 1 (human (endogenous in monocyte-derived macrophages)) (UniProt Q13283). As to the kind of experiment: co-IP; lysates from MDMs-M2; coimmunoprecipitation with G3BP1 or DDX3Y antibody, rabbit isotype IgG as control; endogenous proteins.

In the case of “DEAD-box helicase 3 Y-linked (from UniProt O15523 1-660)”, the binding result is given as “binds”.
